Test results: publication PMC12700540
These are yes or no findings as the source states them, for the method shown. In cells and extracts the contact can be indirect. Here binding means that the protein was enriched with, or labelled near, the bait; the list need not be complete. Each block holds one molecule with its values, some of them ahead of it.

By UniProt entry, the sequences of proteins in these tests, tags left out.
UniProt P70168: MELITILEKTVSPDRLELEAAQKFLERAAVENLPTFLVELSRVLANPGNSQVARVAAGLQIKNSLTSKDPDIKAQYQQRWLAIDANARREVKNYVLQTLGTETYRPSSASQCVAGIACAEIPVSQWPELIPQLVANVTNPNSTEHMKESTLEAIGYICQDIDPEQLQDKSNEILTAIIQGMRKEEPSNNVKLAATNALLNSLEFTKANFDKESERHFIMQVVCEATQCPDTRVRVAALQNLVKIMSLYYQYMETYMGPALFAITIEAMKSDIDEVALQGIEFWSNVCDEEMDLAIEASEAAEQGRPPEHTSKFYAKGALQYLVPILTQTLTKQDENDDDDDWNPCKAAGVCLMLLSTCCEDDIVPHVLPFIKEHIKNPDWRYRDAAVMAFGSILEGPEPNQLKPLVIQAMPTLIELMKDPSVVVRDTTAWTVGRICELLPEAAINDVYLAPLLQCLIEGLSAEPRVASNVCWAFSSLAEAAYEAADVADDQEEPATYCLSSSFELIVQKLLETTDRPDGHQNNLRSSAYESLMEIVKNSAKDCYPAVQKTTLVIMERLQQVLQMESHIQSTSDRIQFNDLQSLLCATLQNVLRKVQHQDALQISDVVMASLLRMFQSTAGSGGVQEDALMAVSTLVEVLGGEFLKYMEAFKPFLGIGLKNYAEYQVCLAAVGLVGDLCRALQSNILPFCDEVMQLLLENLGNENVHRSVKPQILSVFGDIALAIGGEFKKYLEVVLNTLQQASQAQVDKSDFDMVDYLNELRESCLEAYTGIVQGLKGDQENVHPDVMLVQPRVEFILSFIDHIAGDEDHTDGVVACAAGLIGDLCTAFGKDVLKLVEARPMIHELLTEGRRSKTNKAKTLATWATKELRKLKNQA

Assays:
[1] = target: T1, S100a9 lactylated at lysine 26 (S100a9K26la) (mouse (endogenous in neutrophils)) (UniProt P31725); test: affinity purification with mass spectrometry; co-IP coupled to MS of S100a9K26la from neutrophils
T1 sequence (chain, lactyl-lysine at 26 (K26la)): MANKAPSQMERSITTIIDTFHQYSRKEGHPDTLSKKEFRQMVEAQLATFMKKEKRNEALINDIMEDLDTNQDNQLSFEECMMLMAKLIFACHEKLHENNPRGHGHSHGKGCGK

[2] = target: T1, S100a9 lactylated at lysine 26 (S100a9K26la) (mouse (endogenous in neutrophils)); test: affinity purification with mass spectrometry; MS of anti-S100a9K26la immunoprecipitates (against IgG) from BM neutrophils 1 day after MI/R

binding [1]: binds
Molecule: importin β1 (from UniProt P70168 1-876)

binding [2]: binds
B1: dihydrolipoyllysine-residue acetyltransferase (DLAT) (enzyme, UniProt Q8BMF4 86-642)
chain: SLPPHQKVPLPSLSPTMQAGTIARWEKKEGEKISEGDLIAEVETDKATVGFESLEECYMAKILVPEGTRDVPVGSIICITVEKPQDIEAFKNYTLDLAAAAAPQAAPAAAPAPAAAPAAPSASAPGSSYPTHMQIVLPALSPTMTMGTVQRWEKKVGEKLSEGDLLAEIETDKATIGFEVQEEGYLAKILVPEGTRDVPLGAPLCIIVEKQEDIAAFADYRPTEVTSLKPQAAPPAPPPVAAVPPTPQPVAPTPSAAPAGPKGRVFVSPLAKKLAAEKGIDLTQVKGTGPEGRIIKKDIDSFVPSKAAPAAAAAMAPPGPRVAPAPAGVFTDIPISNIRRVIAQRLMQSKQTIPHYYLSVDVNMGEVLLVRKELNKMLEGKGKISVNDFIIKASALACLKVPEANSSWMDTVIRQNHVVDVSVAVSTPAGLITPIVFNAHIKGLETIASDVVSLASKAREGKLQPHEFQGGTFTISNLGMFGIKNFSAIINPPQACILAIGASEDKLIPADNEKGFDVASVMSVTLSCDHRVVDGAVGAQWLAEFKKYLEKPITMLL
